System: MiaPaCa-2 and A549 cells
Assay: Cellular uptake by LC-MS/MS
Type: cell-based, human
Conditions: Mito10-ATO 0.1 and 1 µM, ATO 1-10 µM; 1, 2, 4 and 24 h

| Compound | Cellular uptake (LC-MS/MS) |
| --- | --- |
| O=C1C(OCCCCCCCCCC[P+](c2ccccc2)(c2ccccc2)c2ccccc2)=C([C@H]2CC[C@H](c3ccc(Cl)cc3)CC2)C(=O)c2ccccc21 [Mito10-ATO] | accumulated inside the cells with time |
| O=C1C(O)=C([C@H]2CC[C@H](c3ccc(Cl)cc3)CC2)C(=O)c2ccccc21 [ATO, Atovaquone] | considerably lower and did not accumulate |

Reference: publication PMC7578061, “Potent inhibition of tumour cell proliferation and immunoregulatory function by mitochondria-targeted atovaquone” (Scientific Reports, 2020)
